# Measurements reported in PubChem BioAssay AID2551 (National Center for Advancing Translational Sciences (NCATS), 2010).
# Amino acid sequences for entries named in this document (tags omitted). A change or cut given only in a name is not applied to a line headed by its entry.
# UniProt P51450: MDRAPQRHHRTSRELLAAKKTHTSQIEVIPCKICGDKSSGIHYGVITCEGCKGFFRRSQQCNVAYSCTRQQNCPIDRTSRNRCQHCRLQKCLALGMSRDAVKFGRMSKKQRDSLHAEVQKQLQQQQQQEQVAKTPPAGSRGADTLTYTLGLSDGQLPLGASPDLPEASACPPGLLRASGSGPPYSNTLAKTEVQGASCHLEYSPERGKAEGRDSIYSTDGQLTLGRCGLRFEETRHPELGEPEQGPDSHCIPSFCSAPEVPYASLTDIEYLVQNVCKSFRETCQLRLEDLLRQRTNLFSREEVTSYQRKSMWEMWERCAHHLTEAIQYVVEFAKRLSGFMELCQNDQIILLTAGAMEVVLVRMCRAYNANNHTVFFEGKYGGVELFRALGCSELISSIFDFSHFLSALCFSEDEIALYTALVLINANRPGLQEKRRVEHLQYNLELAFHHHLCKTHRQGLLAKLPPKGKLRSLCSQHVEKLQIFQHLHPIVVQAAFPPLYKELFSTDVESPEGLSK
# About 17,000 (5.5%) of roughly 310,000 compounds were called active. The shares of active, inactive and inconclusive entries below differ from those in the screen. Calls follow the shape of the dose curve; as a rule, active = well fitted inhibition curve with a large enough effect; inconclusive = small, poorly fitted or top-dose-only effect, or effect the other way; inactive = no such curve, though single readings can be large or run the other way. Where the call is inconclusive, the potency comes from a doubtful curve fit.
# Molecular target: Nuclear receptor ROR-gamma (Mus musculus) (UniProt P51450)
# Assay: qHTS for inhibitors of ROR gamma transcriptional activity; also: nearly all actives have a fitted effect of over 60% in size
# Details: Drosophila S2 Gal4-RORgamma UAS-luciferase reporter, 20 h; series mostly up to 53.6 µM
# In short: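 Luciferase reporter read in Schneider cells carrying Gal4-RORγ (mouse) and UAS-Photinus luciferase; cells given compound 1 h before 700 uM copper sulfate induction, then incubated 20 h at ambient temperature.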
# Potency is read from the fitted curve at half-maximal effect.
row,Compound,Potency
1,Cc1nc(CNC(=O)CC2C(=O)NCCN2Cc2ccc(F)cc2)cs1 (stereo not given),inactive
2,Cc1c(CCC(=O)N2CCC(C(=O)O)CC2)c(=O)oc2cc3oc4c(c3cc12)CCCC4,"inconclusive: 3.16 µM [inhibitor, full curve]"
3,Cc1cccc(NS(=O)(=O)c2cc(OCC(N)=O)c(C)cc2Cl)c1,inactive
4,COC(=O)c1ccc(Oc2cc(C)nc(-n3nc(C)cc3C)n2)cc1,active: 0.282 µM
5,COc1ccc2nc(-n3c(C)ccc3C)sc2c1,inactive
6,N/C(Cc1ccc(Cl)cc1Cl)=N\OC(=O)c1cccs1,active: 12.6 µM
7,COc1ccc(-n2c(SCC#N)nc3c(sc(=S)n3-c3ccccc3)c2=O)c(OC)c1,inactive
8,C/C(=N\OCC(=O)Nc1ccc(OC(F)(F)F)cc1)c1ccc2c(c1)OCCO2,"inconclusive: 35.5 µM [inhibitor, single point]"
9,Cc1ccc(OCC(=O)NNC(=O)CSc2ncc(C#N)c(N)n2)cc1,active: 0.708 µM
10,COc1cc(OC)c(-c2c3cc(O)c(=O)cc-3oc3cc(O)c(O)cc23)cc1OC,"inconclusive: 12.6 µM [inhibitor, single point]"
11,O=C(Nc1ccc(F)c(F)c1)c1cccnc1,"inconclusive: 2.51 µM [inhibitor, partial curve, poor fit]"
12,O=C(CSc1nnnn1C1CCCC1)Nc1cccc(NC(=O)c2ccco2)c1,inactive
13,Cn1c(/C=C/c2ccccc2[N+](=O)[O-])nc2ccccc2c1=O,inactive
14,Cc1ccc(NC(=S)N2CCCCCC2)cc1,"inconclusive: 6.31 µM [inhibitor, partial curve]"
15,Cc1c(OC(C)C(=O)NC2CC(C)(C)NC(C)(C)C2)ccc2c3c(c(=O)oc12)CCC3 (stereo not given),inactive
16,COc1ccc(O)c(-c2cc(-c3cccc(Br)c3)n[nH]2)c1,"inconclusive: 3.16 µM [inhibitor, single point]"
17,CC(C)N(Cc1nc(-c2ccc(Cl)cc2)no1)C(=O)C12CC3CC(CC(C3)C1)C2,inactive
18,CCN(CC)S(=O)(=O)N1CCC(C(=O)NCc2ccc(C)cc2)CC1,inactive
19,COc1ccccc1C(=O)NC(=O)Nc1c(C)cc(C)cc1C,inactive
20,CC(C)Cn1c(N)c(C(=O)COC(=O)C2CCCCC2)c(=O)n(C)c1=O,"inconclusive: 12.6 µM [activator, partial curve]"
21,CC(C)c1ccccc1OCC(O)CN1CCN(S(=O)(=O)c2ccc([N+](=O)[O-])cc2)CC1 (stereo not given),inactive
22,COC(=O)c1ccc(/C=N\N2CCN(c3ccccc3)CC2)cc1,"inconclusive: 35.5 µM [inhibitor, single point]"
23,CCN(CCn1cccn1)Cc1cn[nH]c1-c1ccc(-c2ccccc2)cc1,inactive
24,Cc1nc(-c2ccc(S(=O)(=O)NCc3cccnc3)s2)cs1,"inconclusive: 12.6 µM [activator, single point]"
25,CCc1sc(C(=O)Nc2ccc(NC(C)=O)cc2)cc1C,"inconclusive: 10 µM [activator, partial curve]"

# An excerpt of these results, bar-delimited:
row | Compound | Potency
15 | Cc1c(OC(C)C(=O)NC2CC(C)(C)NC(C)(C)C2)ccc2c3c(c(=O)oc12)CCC3 (stereo not given) | inactive
16 | COc1ccc(O)c(-c2cc(-c3cccc(Br)c3)n[nH]2)c1 | inconclusive: 3.16 µM [inhibitor, single point]
17 | CC(C)N(Cc1nc(-c2ccc(Cl)cc2)no1)C(=O)C12CC3CC(CC(C3)C1)C2 | inactive
18 | CCN(CC)S(=O)(=O)N1CCC(C(=O)NCc2ccc(C)cc2)CC1 | inactive
19 | COc1ccccc1C(=O)NC(=O)Nc1c(C)cc(C)cc1C | inactive
20 | CC(C)Cn1c(N)c(C(=O)COC(=O)C2CCCCC2)c(=O)n(C)c1=O | inconclusive: 12.6 µM [activator, partial curve]
21 | CC(C)c1ccccc1OCC(O)CN1CCN(S(=O)(=O)c2ccc([N+](=O)[O-])cc2)CC1 (stereo not given) | inactive
22 | COC(=O)c1ccc(/C=N\N2CCN(c3ccccc3)CC2)cc1 | inconclusive: 35.5 µM [inhibitor, single point]
23 | CCN(CCn1cccn1)Cc1cn[nH]c1-c1ccc(-c2ccccc2)cc1 | inactive
24 | Cc1nc(-c2ccc(S(=O)(=O)NCc3cccnc3)s2)cs1 | inconclusive: 12.6 µM [activator, single point]
25 | CCc1sc(C(=O)Nc2ccc(NC(C)=O)cc2)cc1C | inconclusive: 10 µM [activator, partial curve]

# (continued)

row,Compound,Potency
1,COc1ccc(NC(=O)N2CCc3ccccc32)cc1,"inconclusive: 11.2 µM [inhibitor, single point]"
2,O=C1/C(=C/c2ccccc2)CSc2sccc21,"inconclusive: 35.5 µM [activator, single point]"
3,Cc1ccc2[nH]c(=O)c(CN(Cc3nnnn3C3CCCC3)C3CCCCC3)cc2c1,inactive
4,CSC1=C(C#N)C(c2ccccc2)C(C(C)=O)=C(C)N1 (stereo not given),inactive
5,CCC(CNC(=O)c1c(C)nn(-c2ccccc2)c1Cl)c1ccccc1 (stereo not given),inactive
6,Cc1cccc(-n2ccnc2SCC(=O)Nc2nccs2)c1C,"inconclusive: 35.5 µM [inhibitor, single point]"
7,Cc1ccc(S(=O)(=O)N2CCOC2CNC(=O)C(=O)NCCN2CCOCC2)cc1 (stereo not given),inactive
8,N/C(=N\OC(=O)c1cccc(Br)c1)c1ccccn1,active: 10 µM
9,Cc1nc(-c2ccc(S(=O)(=O)Nc3ccccc3C)cc2)co1,"inconclusive: 35.5 µM [activator, single point]"
10,CC(=O)OCC1OC(C#CC(C)(C)C)C=CC1OC(C)=O (stereo not given),"inconclusive: 3.55 µM [activator, partial curve, poor fit]"
11,O=C(Cn1nnc(-c2cccc(C(F)(F)F)c2)n1)NNS(=O)(=O)c1cccc(C(F)(F)F)c1,"inconclusive: 20 µM [activator, partial curve]"
12,CN(C)c1ccc(N=Nc2ccccc2Br)cc1,active: 8.91 µM
13,Cn1c(SCC(=O)NC2CC2)nnc1-c1cccs1,"inconclusive: 35.5 µM [inhibitor, single point]"
14,CC(=O)OCC(CO)OC(C)=O (stereo not given) (tested in a mixture with another compound),inactive
15,O=C(O)c1ccc(/C=C2\CCCc3c2nc2ccccc2c3C(=O)O)cc1,inactive
16,CC(=O)Nc1c(C(=O)NCc2ccccc2)nnn1Cc1ccccc1,inactive
17,Cc1nc2cnc(Nc3ccccc3)nc2n(Cc2cccs2)c1=O,"inconclusive: 35.5 µM [inhibitor, single point]"
18,CCCC[C@@H]1C[C@H]1C(NC(=O)c1cccnc1)c1ccc(-c2ccccc2)cc1 (stereo not given in full),"inconclusive: 35.5 µM [inhibitor, single point]"
19,Cc1ccccc1OCCNc1cc(N2CCCCC2)ccc1[N+](=O)[O-],"inconclusive: 17.8 µM [activator, single point]"
20,COc1cccc2sc(Nc3nnc(-c4cccs4)o3)nc12,active: 1.41 µM
21,CC(=O)c1cc2c(cc1NC(=O)c1cc(C)nn1-c1ccccc1)OCO2,inactive
22,Cc1onc(-c2ccccc2)c1C(=O)Oc1cccnc1,active: 7.94 µM
23,CCOc1ccc(/C=N/NC(=O)c2nnn(-c3nonc3N)c2-c2ccc(OCC)cc2)cc1,"inconclusive: 20 µM [inhibitor, single point]"
24,CCOC(=O)Cc1csc(NC(=S)NC(=O)c2cc(OC)cc(OC)c2)n1,"inconclusive: 17.8 µM [inhibitor, single point]"
25,O=C(O)C1CC(=O)N(c2ccc(OCc3ccc(Cl)cc3Cl)cc2)C1 (stereo not given),"inconclusive: 22.4 µM [inhibitor, single point]"
